# The supplement of paper PMC3334620
# Whole data set: some 33,000 sequences, median “E-score (-0.5 to 0.5)” near -8e-05, cut for the highest 2% near 0.23. The list shows a part of the results.
# Molecular target: T1, Nrg2 (UniProt P38082)
# T1 sequence: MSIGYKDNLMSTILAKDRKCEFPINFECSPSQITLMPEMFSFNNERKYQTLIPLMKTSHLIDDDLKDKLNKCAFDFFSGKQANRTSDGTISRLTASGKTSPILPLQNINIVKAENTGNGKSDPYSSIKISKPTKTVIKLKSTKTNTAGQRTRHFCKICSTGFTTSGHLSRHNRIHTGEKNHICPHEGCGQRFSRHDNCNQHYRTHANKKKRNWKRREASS
# Assay: PBM E-score (8-mer binding enrichment) (E-score (-0.5 to 0.5)); higher = stronger / more preferred TF binding
# Details: protein concentration: 100 nM; construct: GST-full length
# In short: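 Full-length yeast transcription factors or their DNA-binding domains, GST-tagged and expressed with PURExpress, were applied at about 100-200 nM to universal all-10-mer Agilent arrays. These arrays had been made double-stranded by primer extension on fresh or once-stripped slides. Detection used fluorescent anti-GST, normalisation used masliner, and E-scores for ungapped eight-base words pooled with reverse complements came from the Universal PBM Analysis Suite.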
row,Sequence,PBM E-score
1,GACCGAAA,0.0884
2,ATAGCTAC,-0.0453
3,ACGACGCT,-0.161
4,GCTCGAGA,-0.131
5,CCCGTTAA,-0.00327
6,ACAATAAA,0.136
7,AACATTGG,-0.192
8,AGGTGTTA,-0.101
9,ACTGTCAC,-0.067
10,CAGGGTTA,0.0393
11,AGACATCA,-0.0341
12,CGACGTCC,0.0832
13,GGCCATGA,0.109
14,GTTGTACA,0.147
15,GCTTATGA,-0.0632
16,GCCGTTGA,0.0631
17,AGATCTCA,0.0774
18,GCTCGATA,0.133
19,CGGGGTCC,0.145
20,GAGAACGA,0.143
21,AAGGGTCG,0.132
22,GGCTGTAA,-0.0744
23,AGGCATTA,-0.091
24,CATCGACG,0.0941
25,CGCATCCA,-0.00975

row,Sequence,PBM E-score
1,GTAGTGAC,-0.00931
2,TCTCTGCA,-0.121
3,AAGTTGTA,0.154
4,CGGGGATA,-0.0457
5,CCACATCG,-0.128
6,ATAATTTG,0.182
7,ACGCCACC,-0.148
8,CGATTATC,-0.0579
9,AAACAACA,-0.00449
10,TCTGAAGA,-0.0939
11,CTTTTAAA,-0.168
12,ATTACCTG,-0.00837
13,CCGCAGCA,0.012
14,AAGGCCGT,-0.107
15,ACCGCATG,-0.0341
16,AGGCGCCG,-0.0298
17,AGTGTTAC,0.0833
18,ACGCTTGA,0.0675
19,GTAGTATA,0.181
20,AAATGGCA,0.0923
21,AAGGCTTA,-0.202
22,CATGCTCG,-0.0652
23,ATGGGACG,-0.0206
24,CAAAGGGC,0.00955
25,ATGTTAAT,-0.0856

# Some values from the entries so far:
# PBM E-score with GAGAACGA is entered as 0.143
# PBM E-score with AAACAACA is entered as -0.00449
# PBM E-score with ATAGCTAC is entered as -0.0453
# PBM E-score with ATAATTTG is entered as 0.182
# PBM E-score with CGGGGTCC is entered as 0.145
# PBM E-score with ACGACGCT is entered as -0.161
# PBM E-score with GCTCGATA is entered as 0.133

# The results go on.

row,Sequence,PBM E-score
1,GAGGGACA,0.0412
2,AGATTAAA,0.208
3,CCATTGAC,-0.179
4,CCAGCCGC,-0.0131
5,ATTCTAAA,0.0362
6,AGAGTACG,0.0104
7,TCCGTTCA,-0.0761
8,AGGCTCGC,-0.0786
9,AACGTAAT,0.163
10,CGAAGGAA,-0.114
11,ATAAGGGA,0.0808
12,ATCGGAGC,-0.0585
13,CCCGATGC,-0.0449
14,GCCCTGGA,0.247
15,ACACAAAC,-0.0669
16,ACACCAGT,-0.17
17,AGAACCCA,-0.0364
18,CATAGGAA,-0.131
19,TATTTGGA,-0.115
20,GGCTATGA,-0.161
21,GAGGACCA,-0.0882
22,CCACGAGA,0.00103
23,AGTCCTCC,-0.277
24,CCCAGACA,-0.081
25,GCACTGAC,-0.04

row,Sequence,PBM E-score
1,CGCGCAAC,0.113
2,ATGGACCA,-0.0515
3,GTGTGTTA,0.19
4,ATCCGTGC,0.039
5,CGGCGGAA,0.141
6,AATCTAAT,-0.0552
7,CTAGAGTA,-0.0664
8,AATTCGTC,0.201
9,CTCCCTCA,-0.106
10,AACCCTTC,0.168
11,ATCAATAG,0.0823
12,ATAGGACA,-0.118
13,CCACGTTA,0.0534
14,AAATGGGG,-0.0617
15,ACTATCCA,0.0385
16,CACCGTGC,0.128
17,CCCGGACC,-0.162
18,CCGCGGAA,0.189
19,AGCACCAC,-0.242
20,CATAAAGA,0.0609
21,CTACGAAA,-0.109
22,AATACCGT,0.099
23,CTCTGACA,0.123
24,TCAGTACA,0.102
25,GCCGTGCC,-0.147

row,Sequence,PBM E-score
1,AACTGCAA,-0.00575
2,ATGTTCCC,-0.0414
3,ATTCCAGC,-0.0562
4,ACGTATAA,-0.0193
5,ACCCCTAG,0.153
6,CCCCGTCA,-0.0623
7,GAATTTGC,0.172
8,GGTGAGAC,-0.216
9,CGGATGCA,-0.198
10,AGTCTTCC,-0.184
11,AGGAAAGC,-0.172
12,ACTAAAGT,-0.0406
13,CGACAATC,0.009
14,CTTGAAGC,-0.0505
15,GAACTCAC,-0.00682
16,ATAGGCGC,0.0186
17,ACTGACCC,-0.133
18,CGGGTCTA,-0.0249
19,AGTAGTGG,0.175
20,AATTAGAA,0.0674
21,ACATGTCA,-0.0279
22,AGGCGGGC,-0.121
23,ACCCGTAC,0.0835
24,ATAAAGGC,-0.208
25,AGAACTCA,0.0527

row,Sequence,PBM E-score
1,AGTGATCA,0.063
2,AGACGTAT,-0.137
3,CCAAACCA,-0.0594
4,GGCGCACC,-0.107
5,AACTGCAG,-0.0636
6,GTTATTAA,0.182
7,ATGTCAAA,0.0408
8,AAACACTT,0.122
9,GACACTTA,-0.0717
10,GCTGCAGA,0.139
11,AACGCGAG,0.092
12,TAGGATCA,0.0925
13,ACACGCAA,0.122
14,GCAACCCA,-0.0957
15,GCCCCGGA,-0.0937
16,AGTTTGAT,0.129
17,CAAAGTGA,0.0979
18,CAACCCCA,0.206
19,CAGACACC,-0.0427
20,CGAAGGGA,0.144
21,CGGTCTCC,-0.0422
22,ACGATACG,-0.0773
23,GGCAACGA,0.148
24,GAATCGGA,0.202
25,CTAGTCCA,-0.123

row,Sequence,PBM E-score
1,CCCGACCG,-0.0769
2,GATAGAGC,0.0906
3,TGCCAAAA,0.136
4,ACTTTACG,-0.0231
5,AAAGTTCA,-0.06
6,GTATTAAC,-0.0959
7,CGTGGGAA,-0.179
8,ACAGCTAG,0.0222
9,ATCCACTG,0.045
10,TAGCGGAA,-0.0638
11,ATATGGAT,0.247
12,ACCTTGCT,-0.0256
13,CGGCACGC,-0.261
14,GGGGATCA,-0.142
15,AAAGTCCC,-0.055
16,ACTTCGGG,0.0979
17,CTGTCTTC,-0.00142
18,CAAAGCAC,-0.0605
19,CCAATTGC,-0.0326
20,GGGCTTGA,-0.2
21,ACACAGGG,0.238
22,CATGGCAA,0.0789
